Measured values reported in paper PMC7862700.
Only a part is listed here, and it is no random draw. At the low end of the ranking the order means little.

By UniProt entry, the sequences of proteins in these tests, tags left out. Where a name states a change or a piece, a line headed by the entry shows the natural chain unless it says otherwise.
UniProt O43186: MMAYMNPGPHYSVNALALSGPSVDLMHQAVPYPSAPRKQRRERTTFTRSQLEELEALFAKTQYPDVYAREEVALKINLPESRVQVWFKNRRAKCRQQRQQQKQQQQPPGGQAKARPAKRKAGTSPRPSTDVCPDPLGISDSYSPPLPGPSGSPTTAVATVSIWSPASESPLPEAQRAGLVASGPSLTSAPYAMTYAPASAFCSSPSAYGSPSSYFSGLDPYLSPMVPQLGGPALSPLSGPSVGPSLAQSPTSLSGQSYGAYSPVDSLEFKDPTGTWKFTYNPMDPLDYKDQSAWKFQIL

Tests used:
Test in all cases: DAPPL (digital affinity profiling via proximity ligation, sequencing)
Details in all cases: 10 mM Tris-HCl pH 7.5, 50 mM NaCl, 1 mM DTT, 4% glycerol, room temperature, 30 min; GST-TFs on glutathione beads, 16-mer random dsDNA library, 0.1% …; high values mean tight binding; double strand, one strand shown; scale: fold enrichment (6-mer frequency, TF over GST control)
[1] = target: T1, FEV (UniProt Q99581)
T1 sequence: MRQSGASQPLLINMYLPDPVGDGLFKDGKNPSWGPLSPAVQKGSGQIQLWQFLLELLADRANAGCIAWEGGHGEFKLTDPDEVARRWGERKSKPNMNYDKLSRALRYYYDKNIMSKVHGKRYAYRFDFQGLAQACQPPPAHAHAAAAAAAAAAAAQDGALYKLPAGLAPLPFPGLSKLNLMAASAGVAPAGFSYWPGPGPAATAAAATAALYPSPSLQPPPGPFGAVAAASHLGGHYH

[2] = target: CRX (UniProt O43186)
[3] = target: T2, ELF5 (UniProt Q9UKW6-2)
T2 sequence: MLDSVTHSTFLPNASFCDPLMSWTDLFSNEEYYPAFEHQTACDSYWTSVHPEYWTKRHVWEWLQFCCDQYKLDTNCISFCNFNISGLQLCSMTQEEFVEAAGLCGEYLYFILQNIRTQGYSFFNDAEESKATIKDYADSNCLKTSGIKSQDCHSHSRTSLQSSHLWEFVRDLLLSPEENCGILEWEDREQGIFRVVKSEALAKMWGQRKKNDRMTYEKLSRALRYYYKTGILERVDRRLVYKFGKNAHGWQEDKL

| Sequence | binding signal [1] | binding signal [2] | binding signal [3] |
| --- | --- | --- | --- |
| GCGGTA | 0.735 | 0.635 | 0.742 |
| TCGGCG | 0.476 | 0.42 | 0.454 |
| CCGGGG | 0.742 | 0.531 | 0.791 |
| AGGTTA | 0.708 | 0.878 | 0.742 |
| GCGAGC | 0.892 | 0.707 | 0.795 |
| AGCTGG | 0.869 | 0.974 | 0.873 |
| GTCGTT | 0.698 | 0.554 | 0.741 |
| GTCGTC | 0.662 | 0.49 | 0.741 |
| GCAGAC | 0.72 | 0.485 | 0.734 |
| AGGGCC | 0.938 | 0.787 | 0.863 |
| GGCAAA | 0.919 | 0.806 | 0.903 |
| TCGGAC | 0.384 | 0.314 | 0.337 |
| TGAGAT | 0.747 | 0.893 | 0.631 |
| TCGCAG | 0.918 | 0.822 | 0.866 |
| CGGGGC | 0.574 | 0.449 | 0.555 |
| TCGGAA | 0.561 | 0.388 | 0.572 |
| GGTCGT | 0.575 | 0.418 | 0.633 |
| ATCGAG | 0.826 | 0.968 | 0.779 |
| GGTGAA | 0.792 | 0.583 | 0.73 |
| CGGGGG | 0.456 | 0.395 | 0.444 |
| GTAGGC | 0.755 | 0.629 | 0.633 |
| GTCATG | 0.738 | 0.593 | 0.798 |
| CCGTGA | 0.185 | 0.165 | 0.197 |

| Sequence | binding signal [1] | binding signal [2] | binding signal [3] |
| --- | --- | --- | --- |
| GGAGTG | 0.398 | 0.309 | 0.391 |
| TGTAGG | 0.787 | 0.667 | 0.774 |
| CCATCG | 0.808 | 0.706 | 0.773 |
| GACACG | 0.665 | 0.486 | 0.698 |
| TGAGAA | 0.725 | 0.715 | 0.667 |
| GACAGT | 0.429 | 0.351 | 0.443 |
| ACGGGG | 0.658 | 0.581 | 0.672 |
| GACACA | 0.862 | 0.627 | 0.937 |
| GCCGCG | 0.799 | 0.668 | 0.693 |
| GGGACG | 0.507 | 0.301 | 0.497 |
| CCAGCG | 0.613 | 0.543 | 0.601 |
| AACAGT | 0.614 | 0.598 | 0.635 |
| GGCGAG | 0.551 | 0.433 | 0.531 |
| GGGAAT | 0.77 | 0.902 | 0.793 |
| GCAACG | 0.9 | 0.678 | 0.944 |
| GTGGAC | 0.96 | 0.635 | 0.878 |
| GCCCAG | 0.757 | 0.629 | 0.665 |
| ATGAGA | 0.886 | 0.886 | 0.785 |
| CAACGT | 0.861 | 0.661 | 0.811 |
| CGTGTA | 0.633 | 0.557 | 0.697 |
| GAATCG | 0.585 | 0.592 | 0.599 |
| TCGGTT | 0.815 | 0.793 | 0.774 |
| GACGTC | 0.938 | 0.57 | 0.867 |

| Sequence | binding signal [1] | binding signal [2] | binding signal [3] |
| --- | --- | --- | --- |
| GAGGCT | 0.574 | 0.671 | 0.565 |
| GTAAAG | 0.835 | 0.958 | 0.926 |
| AGTGAT | 0.846 | 0.896 | 0.895 |
| AATCGG | 0.558 | 0.85 | 0.542 |
| TGTGTG | 0.802 | 0.669 | 0.784 |
| AGGCGT | 0.467 | 0.469 | 0.499 |
| GCACCA | 0.847 | 0.643 | 0.876 |
| AGCGGT | 0.66 | 0.662 | 0.658 |
| CAGTAC | 0.879 | 0.682 | 0.798 |
| TGAGTT | 0.386 | 0.389 | 0.4 |
| GAACGC | 0.726 | 0.585 | 0.69 |
| CAAGAG | 0.733 | 0.722 | 0.73 |
| GAGTGT | 0.511 | 0.427 | 0.495 |
| AGGTAC | 0.91 | 0.724 | 0.917 |
| GCAAGA | 0.768 | 0.727 | 0.774 |
| AGCGCA | 0.948 | 0.853 | 0.818 |
| CACCGT | 0.633 | 0.494 | 0.594 |
| GAGCAG | 0.587 | 0.492 | 0.601 |
| CAAGTG | 0.738 | 0.628 | 0.707 |
| GTAGGA | 0.574 | 0.484 | 0.647 |
| GAGTCT | 0.363 | 0.393 | 0.368 |
| GTGGTG | 0.815 | 0.592 | 0.868 |
| CAACAG | 0.894 | 0.74 | 0.891 |

An excerpt from above, limited to binding signal [2].
Sequence | binding signal [2]
AATCGG | 0.85
TGTGTG | 0.669
AGGCGT | 0.469
GCACCA | 0.643

(list continues)

| Sequence | binding signal [1] | binding signal [2] | binding signal [3] |
| --- | --- | --- | --- |
| CGGTGG | 0.639 | 0.486 | 0.637 |
| AGCCAA | 0.822 | 0.876 | 0.874 |
| GTGGGA | 0.614 | 0.534 | 0.608 |
| CCATGA | 0.832 | 0.804 | 0.83 |
| CGTTAG | 0.752 | 0.778 | 0.805 |
| GAGCAT | 0.764 | 0.743 | 0.69 |
| GTGTCG | 0.559 | 0.386 | 0.62 |
| AGAGAC | 0.544 | 0.471 | 0.47 |
| GCGTGG | 0.505 | 0.433 | 0.543 |
| GGGAGA | 0.327 | 0.287 | 0.31 |
| ATGAGT | 0.617 | 0.662 | 0.678 |
| TGGAGT | 0.45 | 0.458 | 0.533 |
| TCGTGC | 0.791 | 0.639 | 0.711 |
| GCAAGG | 0.806 | 0.661 | 0.787 |
| CCGTGT | 0.483 | 0.386 | 0.596 |
| GTGTGA | 0.516 | 0.463 | 0.547 |
| CACGTG | 0.61 | 0.515 | 0.569 |
| GAGAGG | 0.49 | 0.439 | 0.489 |
| GTGGCG | 0.848 | 0.546 | 0.827 |
| GAGTTA | 0.568 | 0.678 | 0.534 |
| CAGCGA | 0.834 | 0.775 | 0.784 |

Quoted from the listing.
binding signal [2], ATGAGT reads 0.662
binding signal [3], CCGGGG reads 0.791
